Laboratory results taken from PubChem BioAssay AID1671190 (National Center for Advancing Translational Sciences (NCATS), 2021).
The campaign covered roughly 580,000 compounds. About 6,100 (1.1%) were called active. The inconclusive results got no clear call from the source; some entries with a clear call stand among them for comparison. Calls follow the shape of the dose curve; as a rule, active = well fitted inhibition curve with a large enough effect; inconclusive = small, poorly fitted or top-dose-only effect, or another doubt; inactive = no such curve, though single readings can be large or run the other way. A potency beside an inconclusive call is a rough fit, not a confirmed value.

Protein sequences, listed by entry. Tags and fused reporters are not part of them. Lines headed by an entry give the natural chain unless they say otherwise; changes in a name come on top.
UniProt P18054: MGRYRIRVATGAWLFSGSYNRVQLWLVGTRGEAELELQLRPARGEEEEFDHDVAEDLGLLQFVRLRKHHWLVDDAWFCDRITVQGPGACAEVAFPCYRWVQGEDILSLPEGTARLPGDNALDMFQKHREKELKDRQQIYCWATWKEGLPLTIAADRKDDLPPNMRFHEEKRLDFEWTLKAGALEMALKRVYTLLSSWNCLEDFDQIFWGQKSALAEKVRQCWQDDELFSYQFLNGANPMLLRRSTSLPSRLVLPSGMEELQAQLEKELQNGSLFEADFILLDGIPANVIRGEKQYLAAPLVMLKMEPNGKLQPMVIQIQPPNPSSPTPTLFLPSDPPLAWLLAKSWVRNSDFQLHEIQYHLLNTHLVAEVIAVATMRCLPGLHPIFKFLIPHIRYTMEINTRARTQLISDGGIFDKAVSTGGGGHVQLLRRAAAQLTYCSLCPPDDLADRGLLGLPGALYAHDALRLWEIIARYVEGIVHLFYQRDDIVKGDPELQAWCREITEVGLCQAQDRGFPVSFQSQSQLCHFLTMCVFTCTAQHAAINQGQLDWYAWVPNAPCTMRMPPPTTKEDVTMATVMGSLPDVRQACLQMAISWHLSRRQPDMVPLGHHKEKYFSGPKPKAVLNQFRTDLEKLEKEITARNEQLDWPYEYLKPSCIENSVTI

target: Polyunsaturated fatty acid lipoxygenase ALOX12 (Homo sapiens) (UniProt P18054); experiment: Primary qHTS assay for inhibitors of human arachidonate 12S-lipoxygenase (ALOX12): Round 2; conditions: purified 12hLO, xylenol orange hydroperoxide absorbance; activity change, negative = inhibition: at 108 µM (top of the series) unless noted
Outline: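 Hydroperoxide product was detected by ferrous iron/xylenol orange as the 573 to 405 nm absorbance ratio. Arachidonic acid at 40 uM (final) was turned over for 30 min at room temperature by 150 nM human 12hLO, pH 7.0 Hepes buffer, after 15 min compound preincubation.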
% is scaled to controls: 0 for no effect and ±100 for the full control effect; potency is read from the fitted curve at half-maximal effect.

Row | SMILES | Potency | activity change, negative = inhibition
1 | CCOc1ccc(-c2csc(N)c2C(=O)OC)cc1 | inconclusive: 6.31 µM [inhibitor, full curve, poor fit] | 
2 | CCn1ccc2cc(S(=O)(=O)N3CCC(C(=O)NCCc4ccc(SC)cc4)CC3)ccc21 | inconclusive: 126 µM [inhibitor, partial curve, poor fit] | 
3 | CCN1c2cc(C(=O)Nc3ccc4c(c3)OCCO4)ccc2C(=O)N2CCCC21 (stereo unspecified) |  | inactive: 1.34%
4 | O=C(Cc1ccc(F)cc1)N(Cc1ccc(C(F)(F)F)cc1)C1CC1 | inconclusive: 50.1 µM [inhibitor, single point] | 
5 | c1ccc(CSc2nnc([C@@H]3CCCN3)o2)cc1 |  | inactive: 2.37%
6 | CCOc1ccc(NS(=O)(=O)c2cc(NC(=O)c3ccc(C)cc3)ccc2Cl)cc1 | inconclusive: 44.7 µM [inhibitor, partial curve, poor fit] | 
7 | COc1ccc(OCC(=O)Sc2ccc(C)cc2)cc1 |  | inactive: -22.8%
8 | Cn1c(CC(=O)Nc2ccccc2F)nnc1SCC(=O)NC1=NCCS1 | inconclusive: 50.1 µM [inhibitor, full curve, poor fit] | 
9 | CN1C(=O)N(CC(=O)N2CCN(S(=O)(=O)c3ccc4c(c3)CCC4)CC2)C(=O)C12CCCCC2 | inconclusive: 44.7 µM [inhibitor, partial curve, poor fit] | 
10 | O=C(O)c1cc(NC(=O)c2cccc(C(=O)Nc3cc(C(=O)O)cc(C(=O)O)c3)c2)cc(C(=O)O)c1 | inconclusive: 6.31 µM [inhibitor, full curve, poor fit] | 
11 | O=C(Nc1ccc(F)c(Cl)c1)Nc1nnc([C@H]2C[C@H](O)[C@@H](CO)O2)s1 |  | inactive: -1.56%
12 | CN1C(=O)c2cccc3c(S(N)(=O)=O)ccc1c23 |  | inactive: 0%
13 | COc1ccccc1NC(=O)N1CC[C@H](c2nnc(-c3ccc(C)cc3)o2)C1 |  | inactive: 8.13% [at 176 µM]
14 | COc1ccc(C(=O)C2CCCN(C(=O)Cc3c(C)noc3C)C2)cc1OC (stereo unspecified) | inconclusive: 50.1 µM [inhibitor, partial curve, poor fit] | 
15 | O=C(Nc1ccc2c3c(cccc13)CC2)c1ccc(F)cc1 | inconclusive: 100 µM [inhibitor, partial curve, poor fit] | 
16 | COc1ccc(-c2cc(C(=O)OCc3ccccn3)c3ccccc3n2)cc1 | inconclusive: 50.1 µM [inhibitor, partial curve, poor fit] | 
17 | Cc1noc(-c2ccc(OCc3ccc(F)cc3)cc2O)c1-c1ccc(Br)cc1 | inconclusive: 5.01 µM [inhibitor, full curve] | 
18 | Cc1cc(C)cc(NC(=O)COC(=O)CCCC2=NS(=O)(=O)c3ccccc3N2)c1 |  | inactive: -4.28%
19 | CCOc1ccc(C(=O)Nc2ccc(-c3nc4cc(C(C)C)ccc4o3)cc2)cc1Cl |  | inactive: -0.541%
20 | CCCC1c2nccn2CCCN1C(=O)c1cc(C)no1 (stereo unspecified) |  | inactive: 34.3%
21 | CN(C)CCCn1c2c(c(SCC(=O)Nc3ccc4c(c3)OCO4)nc1=O)CCC2 |  | inactive: 11.2%
22 | COc1cc(/C=C2/NC(=O)NC2=O)cc(Br)c1OCc1ccccc1 | inconclusive: 50.1 µM [inhibitor, partial curve, poor fit] | 

Row | SMILES | Potency | activity change, negative = inhibition
23 | COc1ccc(C[C@H](NC(=O)[C@@H]2C[C@H](NC(=O)Nc3cccc(SC)c3)CN2C(=O)CC(C)(C)C)C(N)=O)cc1 | inconclusive: 50.1 µM [inhibitor, full curve, poor fit] | 
24 | COc1ccc(S(=O)(=O)Nc2ccc3c(c2)CCC3)cc1 | inconclusive: 89.1 µM [inhibitor, single point] | 
25 | COc1ccccc1Cc1c(-c2ccco2)nc2ccc(Br)cn12 | active: 17.8 µM | 
26 | CC(C)c1nc2oc3c(N(CCO)Cc4ccccc4)ncnc3c2c2c1CCC2 |  | inactive: 8.63%
27 | Cc1ccccc1Cn1c(C)nc2ccc([N+](=O)[O-])cc2c1=O |  | inactive: 0%
28 | Cc1ccc(F)cc1-c1cccc(CCOc2cnc3c(ccn3CC(=O)O)c2)c1 | inconclusive: 50.1 µM [inhibitor, full curve] | 
29 | CC(=O)c1c(C)nn(CC(=O)N2CCOC(C(=O)O)C2)c1C (stereo unspecified) |  | inactive: -14.6%
30 | Cc1cnc(C(=O)OCc2nc3ccsc3c(=O)[nH]2)cn1 |  | inactive: -7.45%
31 | N/C(Cn1cncn1)=N\NC(=O)C(=O)Nc1cccc(C(F)(F)F)c1 | inconclusive: 3.55 µM [inhibitor, full curve, poor fit] | 
32 | O=C1CC(Nc2ccccc2)C(=O)N1c1ccc(N2CCOCC2)cc1 (stereo unspecified) |  | inactive: 0%
33 | COc1ccc(CC(=O)NNC(=S)Nc2ccccc2)cc1Br | inconclusive: 89.1 µM [inhibitor, single point] | 
34 | CCOC(=O)c1c(CSc2ccccc2)n(C)c2ccc(O)c(CN3CCN(C)CC3)c12 | inconclusive: 79.4 µM [inhibitor, partial curve, poor fit] | 
35 | Cc1cc(C)c(NC(=O)CCc2ccco2)c(Cl)c1 | inconclusive: 44.7 µM [inhibitor, partial curve, poor fit] | 
36 | CN(Cc1ccc(C(F)(F)F)cc1)C(=O)NCc1ccco1 | inconclusive: 100 µM [inhibitor, single point] | 
37 | Cc1nn(CCc2nc(-c3ccc4ccccc4c3)cs2)c2[nH]c(=O)cc(C(F)(F)F)c12 | inconclusive: 7.08 µM [inhibitor, full curve, poor fit] | 
38 | CCc1cccc(NC(=O)Cn2c(-c3ccc(Cl)cc3)nc(C)c(CCO)c2=O)c1 | inconclusive: 8.91 µM [inhibitor, full curve] | 
39 | COc1ccc(CNC(=O)Cn2nc(C(F)(F)F)c(Br)c2C)cc1 |  | inactive: 63%
40 | Cc1ccc(C(=O)NCc2nc(-c3ccc(C)cc3)oc2C)cc1 | inconclusive: 50.1 µM [inhibitor, partial curve, poor fit] | 
41 | CC(=O)N1CC[n+]2c(-c3ccc(Cl)cc3)csc21 | inconclusive: 8.91 µM [inhibitor, full curve] | 
42 | Cc1csc(NC(=O)c2cc3c(C)nn(Cc4ccccc4Cl)c3s2)n1 | inconclusive: 50.1 µM [inhibitor, partial curve, poor fit] | 
43 | Cn1c(SCC(=O)c2ccc(F)cc2)nc2cccnc21 | inconclusive: 39.8 µM [inhibitor, partial curve, poor fit] | 
44 | COc1ccc(C#Cc2ccc3c(c2)O[C@H](CN(C)C(C)=O)[C@H](C)CN([C@@H](C)CO)S3(=O)=O)cc1 | inconclusive: 44.7 µM [inhibitor, partial curve, poor fit] | 

Row | SMILES | Potency | activity change, negative = inhibition
45 | O=C(CN1CCOCC1)N/N=C/c1ccc(-c2cccc(Cl)c2Cl)o1 | inconclusive: 31.6 µM [inhibitor, partial curve, poor fit] | 
46 | O=C(CSc1n[nH]c(=O)n1Cc1ccco1)Nc1ccccc1 | inconclusive: 112 µM [inhibitor, single point] | 
47 | CC(C)(C)C(=O)Nc1ccc(S(=O)(=O)NC2=NCCCCC2)cc1 | inconclusive: 100 µM [inhibitor, partial curve, poor fit] | 
48 | CN1CCN(C(=O)c2cc3cc(Cl)ccc3[nH]2)CC1 | inconclusive: 50.1 µM [inhibitor, partial curve, poor fit] | 
49 | Cn1c(SCc2ccccc2F)nc2ccccc2c1=O | inconclusive: 112 µM [inhibitor, single point] | 
50 | COc1ccc(NC(=O)c2cc(CN3C(=O)c4ccccc4C3=O)ccc2OC)cn1 |  | inactive: -15.9%
51 | O=C(O)c1ccc(F)cc1I | inconclusive: 35.5 µM [inhibitor, partial curve, poor fit] | 
52 | N#Cc1cccc(NC(=O)N2CC[C@@]3(CCCN(C(=O)c4cccc(F)c4)C3)C2)c1 | inconclusive: 28.2 µM [inhibitor, single point] | 
53 | N#Cc1cc2c(nc1SCC(=O)Nc1sc3c(c1C#N)CCC3)CCCC2 | inconclusive: 44.7 µM [inhibitor, partial curve, poor fit] | 
54 | O=S1(=O)CCC(S(=O)(=O)Nc2ccccc2)C1 (stereo unspecified) |  | inactive: 1.83%
55 | NC(=O)/C(=C/c1ccco1)NC(=O)/C=C/c1ccccc1 | inconclusive: 44.7 µM [inhibitor, partial curve, poor fit] | 
56 | Cc1cc2oc(=O)cc(COC(=O)c3n[nH]c4ccccc34)c2cc1Cl | inconclusive: 44.7 µM [inhibitor, partial curve, poor fit] | 
57 | O=S(Cc1ccc(Cl)cc1)CC(O)COCc1ccc(Cl)cc1 (stereo unspecified) | inconclusive: 79.4 µM [inhibitor, partial curve, poor fit] | 
58 | Cc1cc(S(=O)(=O)N(C)C)c(C)cc1Br |  | inactive: 13.8%
59 | Oc1c(Cl)cc(CN2CCOCC2)c2cccnc12 | inconclusive: 39.8 µM [inhibitor, partial curve, poor fit] | 
60 | O=C(c1cnccn1)N1CCC[C@@]2(CCN(C(c3ccccc3)c3ccccc3)C2)C1 | inconclusive: 31.6 µM [inhibitor, single point] | 
61 | CC(C)(C)c1ccc(-c2nnc(SCC(=O)NCc3ccco3)n2Cc2ccco2)cc1 | inconclusive: 89.1 µM [inhibitor, partial curve, poor fit] | 
62 | O=C(COC(=O)C12CC3CC(CC(Cl)(C3)C1)C2)Nc1ccc([N+](=O)[O-])cc1Cl | inconclusive: 100 µM [inhibitor, partial curve, poor fit] | 
63 | CCCCc1cc(=O)oc2c(CN(C)C)c(O)c(Cl)cc12 |  | inactive: -11.4%
64 | CS(=O)(=O)Nc1cccc(CNC(=O)CC2CCCCC2)c1 | inconclusive: 89.1 µM [inhibitor, single point] | 
65 | Cc1cccc(N2C(=O)CS(=O)(=O)C23C(=O)N(C)c2ccccc23)c1 (stereo unspecified) |  | inactive: -4.77%
66 | Cc1c(C#N)c(N)nc2c3c(sc12)NC(=O)CC3c1ccc(Cl)cc1 (stereo unspecified) | inconclusive: 141 µM [inhibitor, partial curve, poor fit] | 

Two neighbouring records from above, quoted:
Row | SMILES | Potency | activity change, negative = inhibition
15 | O=C(Nc1ccc2c3c(cccc13)CC2)c1ccc(F)cc1 | inconclusive: 100 µM [inhibitor, partial curve, poor fit] | 
16 | COc1ccc(-c2cc(C(=O)OCc3ccccn3)c3ccccc3n2)cc1 | inconclusive: 50.1 µM [inhibitor, partial curve, poor fit] | 
